For 117 substances, growth estimate results are on record in the supplement of paper PMC5949888.

Most values lie at the floor of the assay. Slopes are relative: functional sequences can read slightly below zero.

This series relates to Saccharomyces cerevisiae PS128 hsf1 delta, HSF1(1-493) fusion. The experiment in a line: growth estimate (transactivation domain function in HSF1 fusion, heat-shock survival) (a.u. (slope of normalised read count over time)); higher = stronger growth at 37°C, i.e. more transactivation activity. The note with it: library: random library. The procedure:
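Random 60-nt DNA library encoding peptides of up to 20 aa, fused to the C-terminus of yeast HSF1 residues 1-493 (C-terminal TAD deleted) and expressed from the native HSF1 promoter on a CEN plasmid in hsf1-deleted S. cerevisiae PS128. Cells were selected at 37°C on -trp 5-FOA plates for 0, 2, 4, 6 and 8 days and amplicons were sequenced. Growth estimate is the slope of a robust linear fit of total-sum-normalised read counts (normalised to the first time point) over time, using at least 2 replicates. Sequences are classed functional (TAD activity) above a threshold of -0.13, set from stop-codon control sequences.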
Take YLHTGMQPPTSRGS: the growth estimate is less than -0.25. Under AGSEPWEFT stands less than -0.25. With RGHCQPSYSVPWQ, the growth estimate was less than -0.25.

As for VPVK, the growth estimate was less than -0.25. In the case of LPHRREPMGLLWILRHR, the growth estimate was less than -0.25. Under LAFDPLQGGFSKFGICSR stands less than -0.25. On to TSGDWASY, for which the growth estimate was less than -0.25.

Regarding CYPN, the growth estimate was less than -0.25. The figure for NSRLQAFCRLYMTTTLLPPD is less than -0.25; for RSFLQVV it is less than -0.25. The figure for YYTDFYG is less than -0.25. Consider VLVDPQKSFQSLRCVTHISW, for which the growth estimate is less than -0.25. Under PTPGSKYRAIAISG stands less than -0.25.

In the case of CSHGL, the growth estimate was less than -0.25.

For SREIAPARWLLCKGVGRDPR, the growth estimate was less than -0.25. Under SDNVCVYVFTPSALYQSSAL stands less than -0.25; under PISG, less than -0.25. On to VSDARRRD, for which the growth estimate was less than -0.25. Under SLSGRISSP stands less than -0.25; under VFKQAQGQSLDTLPRRRYKS, less than -0.25.

Take ATFHSRSRN: the growth estimate is less than -0.25.

TRSVY: the growth estimate was less than -0.25. As to EDPE, the growth estimate was less than -0.25. The figure for FENTVACHPGVRRIVKTSEL is less than -0.25; for PVNFPGLRLFSPEDSGNAPL it is less than -0.25; for DDWMRYAAPH it is less than -0.25. The figure for GIQELSQADRFLRGRQRDPG is less than -0.25. As to GLCCVV, the growth estimate is less than -0.25.

Regarding LVANP, the growth estimate is less than -0.25. Consider RSEEIAKVLRGEKRPGYFSQ, for which the growth estimate is less than -0.25.

In the case of ATDNFYNTGYSQARISLHIA, the growth estimate was less than -0.25. The figure for KLRGRQGCKTV is less than -0.25. In the case of IATHSASNHV, the growth estimate was less than -0.25. Under RKPESHLRFQNNGSRFMGYE stands less than -0.25.

Take ITFDEGALLYSSITERQAIH: the growth estimate was less than -0.25. As for WNCRVCYFKLRIPSRDTSLP, the growth estimate is less than -0.25. Regarding EGWRSW, the growth estimate is less than -0.25.

As to YVGMVKPQADSKPVVHLSTS, the growth estimate was less than -0.25. Under LASVP stands less than -0.25; under LPKTWRVADCTGNASAYCGV, less than -0.25. Under SGDGQARAAMRTTGILTAGV stands less than -0.25. The figure for CWSS is less than -0.25; for VGTNASADG it is less than -0.25; for QCDC it is less than -0.25. Take TKTVISSTAG: the growth estimate was -0.231. Take HRVSSCLRKHMGLEWPPMWA: the growth estimate was less than -0.25. For PILGGRASYGLRYLLFPNAR, the growth estimate was less than -0.25. Take VYLTRLLHCSVSTVRSFPVD: the growth estimate is less than -0.25. In the case of CKMRCLDWVGASPF, the growth estimate was less than -0.25. Under SIPLQTCHIGYARCF stands less than -0.25.

For the substance DEKKTARPTRGCAAIVPH, the growth estimate was less than -0.25. Under FRIRVKSYGNWYSLLILLFV stands less than -0.25; under GLCKRNIHYGLR, less than -0.25. Under REYYTKTWQYRDPAHV stands less than -0.25; under TGCPRFRAGRTLTSLWTFIF, less than -0.25. The figure for IWERPHLPLRA is less than -0.25; for RRRTPHPLLLKSGTASSSQA it is less than -0.25; for PLVGRLDLCQLSLGYDSGSA it is less than -0.25. As to EAFGWNAVQ, the growth estimate was less than -0.25. Consider LWHALQLARNSGWSICC, for which the growth estimate was less than -0.25. As to HKYPPH, the growth estimate is less than -0.25. The figure for TQRQGVVLALMC is less than -0.25; for CRRITSRCRI it is -0.246.

Take RGSPGPGFINNAVVVFDDAQ: the growth estimate was less than -0.25. Turning to GKLGIIGYVRCITCFGAGGQ, the growth estimate is less than -0.25. In the case of WLFYSCQSIFVIKGRPVGIQ, the growth estimate was less than -0.25. Under LLSAGRA stands less than -0.25. Under SVASGDQPARRIQVLRLALN stands less than -0.25. Under YDLS stands less than -0.25; under GPQRYLERWVPTKVRRVANY, less than -0.25. On to RKLHRGGITPGGVSLRGSSP, for which the growth estimate was less than -0.25. The figure for EKS is less than -0.25; for FRPGPKFVWLYRTHRTAFST it is -0.237; for CRRKVLLRQQRLYCWQELVH it is less than -0.25.

Take SLET: the growth estimate is less than -0.25. Under QEMYILPGGPGPPAGLKIRG stands less than -0.25; under PWCT, less than -0.25; under FCGRPRSVRLPGDGFEEGGC, less than -0.25.

On to GAEGRIIDETDATLHRYLHV, for which the growth estimate is less than -0.25.

For RYKTQPKNHPVLKPLELRQS, the growth estimate is less than -0.25. With WCQMPTNRNHS, the growth estimate was less than -0.25. As to YSDNRVFKYSDDGTV, the growth estimate is less than -0.25.

As to SMGGPAPSSSP, the growth estimate was less than -0.25. With ILICRRVNRRSRYLVAQ, the growth estimate is less than -0.25.

In the case of SCWEP, the growth estimate was less than -0.25. Regarding TIPSGSGGLCLMHGLVDNRQ, the growth estimate is less than -0.25.

Consider VVAEYE, for which the growth estimate is less than -0.25. Under LLRFILDGCYGLAHLSAKVS stands less than -0.25. Under CTSTKQKNWTSSNRSRGLGL stands less than -0.25; under SEMVRHHVGHCRANSENKSH, less than -0.25; under TRWVRQSHLMGQIGLRCT, less than -0.25. With LVSICSVYQLRGYPWGNQSR, the growth estimate is less than -0.25. In the case of VNKTASRLFMPPLLDKTFRP, the growth estimate is less than -0.25. The figure for VLLLIS is less than -0.25; for SWD it is less than -0.25.

In the case of CSSVTDRYEQGRT, the growth estimate is less than -0.25. For ALRR, the growth estimate is less than -0.25. With LTQVP, the growth estimate was less than -0.25. The figure for PPFASRPRWRPGSSGRASLT is less than -0.25; for HASTTVHCDRLLLESQGDLT it is less than -0.25. Under CKALLAKP stands less than -0.25; under PEHHNAAIAPHPSWKCADAS, -0.243; under QALPVR, less than -0.25. Under HGVFQGSISRSGW stands less than -0.25; under EVLALPRREDAMR, less than -0.25; under KGYCIRGKSRSTRTRARCIF, less than -0.25. With RSWAVILHWAGNAM, the growth estimate was less than -0.25. With WHWTP, the growth estimate is less than -0.25.

Take PVSRCWLSGSDGRPLLNNVQ: the growth estimate was less than -0.25. Under CVEEVGYD stands less than -0.25; under VQRVTI, -0.218. Under PSKWQVIRLELADIRRAIAL stands less than -0.25; under LAT, less than -0.25. With APERMWVSRSCRRSAFGLRL, the growth estimate was -0.248.

Regarding AFRQTRVSRR, the growth estimate is less than -0.25.

On to TLTLSSIERLRRFTPRSLGS, for which the growth estimate is less than -0.25. Under NMQSSTFMAKIT stands less than -0.25.
